Test results published in doi:10.1101/2021.08.05.455219.
No constants are given. Whether binding was seen depends on the method and setting. Binding seen in cells or lysates may run through a third protein. Some binding calls cover weakened binding; strength is not graded here. Sequences can lack the tags named with a protein.

Protein sequences, listed by entry. Tags and fused reporters are not part of them.
UniProt Q9ERZ3: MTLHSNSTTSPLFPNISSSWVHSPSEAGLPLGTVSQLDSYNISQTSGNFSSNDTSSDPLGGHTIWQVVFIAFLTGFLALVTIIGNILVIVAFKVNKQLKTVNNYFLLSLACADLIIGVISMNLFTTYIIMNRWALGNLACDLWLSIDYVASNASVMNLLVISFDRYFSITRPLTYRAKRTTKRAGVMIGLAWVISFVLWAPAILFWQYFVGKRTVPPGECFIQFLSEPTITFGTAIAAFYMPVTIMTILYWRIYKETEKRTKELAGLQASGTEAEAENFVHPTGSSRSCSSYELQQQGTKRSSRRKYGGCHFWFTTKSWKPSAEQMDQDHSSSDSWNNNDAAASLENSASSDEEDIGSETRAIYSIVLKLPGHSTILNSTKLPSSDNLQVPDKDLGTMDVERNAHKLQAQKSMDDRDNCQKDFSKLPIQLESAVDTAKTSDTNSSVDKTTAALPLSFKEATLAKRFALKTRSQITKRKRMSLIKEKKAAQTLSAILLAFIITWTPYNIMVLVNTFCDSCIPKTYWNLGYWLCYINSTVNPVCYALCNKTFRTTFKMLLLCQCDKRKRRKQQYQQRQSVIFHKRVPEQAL

Columns and labels:
[1] = target: T1, flag-Brsk2 (brain-specific serine/threonine-protein kinase 2), from pcDNA-flag-Brsk2 (human) (UniProt Q8IWQ3); assay: co-IP
T1 sequence: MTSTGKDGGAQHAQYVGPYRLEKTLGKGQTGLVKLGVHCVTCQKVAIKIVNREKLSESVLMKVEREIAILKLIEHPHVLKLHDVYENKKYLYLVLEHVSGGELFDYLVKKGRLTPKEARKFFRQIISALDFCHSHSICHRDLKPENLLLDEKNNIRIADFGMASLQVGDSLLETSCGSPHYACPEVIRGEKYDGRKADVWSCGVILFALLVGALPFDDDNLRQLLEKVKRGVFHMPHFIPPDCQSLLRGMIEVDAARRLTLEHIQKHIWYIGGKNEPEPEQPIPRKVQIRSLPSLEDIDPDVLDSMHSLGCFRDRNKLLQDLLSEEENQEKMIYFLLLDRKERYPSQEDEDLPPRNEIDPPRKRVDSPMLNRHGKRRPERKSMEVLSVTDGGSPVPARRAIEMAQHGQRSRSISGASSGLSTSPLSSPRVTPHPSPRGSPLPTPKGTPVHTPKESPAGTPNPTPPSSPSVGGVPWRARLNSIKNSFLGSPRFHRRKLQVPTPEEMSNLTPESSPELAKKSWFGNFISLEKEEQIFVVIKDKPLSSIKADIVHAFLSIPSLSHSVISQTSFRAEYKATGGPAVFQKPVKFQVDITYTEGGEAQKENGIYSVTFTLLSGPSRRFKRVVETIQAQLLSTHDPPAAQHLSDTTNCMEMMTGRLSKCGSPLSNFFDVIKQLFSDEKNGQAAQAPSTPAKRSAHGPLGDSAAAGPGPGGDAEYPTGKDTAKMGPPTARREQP

[2] = target: T2, Flag-Brsk2 expressed from the adenovirus Ad-Brsk2 in MIN6 cells (human) (UniProt Q8IWQ3); assay: co-IP
T2 sequence: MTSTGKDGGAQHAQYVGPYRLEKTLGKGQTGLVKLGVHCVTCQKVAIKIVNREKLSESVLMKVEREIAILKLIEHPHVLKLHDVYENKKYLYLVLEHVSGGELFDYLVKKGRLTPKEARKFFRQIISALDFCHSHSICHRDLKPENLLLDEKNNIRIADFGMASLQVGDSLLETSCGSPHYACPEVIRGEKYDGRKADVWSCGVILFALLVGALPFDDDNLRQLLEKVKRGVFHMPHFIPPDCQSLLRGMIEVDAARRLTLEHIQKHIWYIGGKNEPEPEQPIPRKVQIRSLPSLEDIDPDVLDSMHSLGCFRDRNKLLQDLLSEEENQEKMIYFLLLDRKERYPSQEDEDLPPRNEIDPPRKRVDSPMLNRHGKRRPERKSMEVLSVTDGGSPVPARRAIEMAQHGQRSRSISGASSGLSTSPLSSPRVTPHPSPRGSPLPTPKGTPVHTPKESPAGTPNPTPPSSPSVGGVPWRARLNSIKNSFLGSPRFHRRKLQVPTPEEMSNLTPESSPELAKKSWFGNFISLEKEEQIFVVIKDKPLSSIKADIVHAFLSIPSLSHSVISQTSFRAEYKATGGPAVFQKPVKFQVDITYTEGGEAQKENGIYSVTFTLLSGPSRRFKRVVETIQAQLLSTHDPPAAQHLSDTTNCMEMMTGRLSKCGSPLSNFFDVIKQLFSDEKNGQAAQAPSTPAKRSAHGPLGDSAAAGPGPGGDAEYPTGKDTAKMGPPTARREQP

Molecule | binding [1] | binding [2]
mCherry-Chrm3 (cholinergic receptor M3), from pmCherry-Chrm3 (from UniProt Q9ERZ3 1-589) | binds | 
phospholipase A2 activating protein (Plaa) of MIN6 cells (protein, UniProt P27612 1-794) MASGASRYRLSCSLPGHELDVRGLVCCLYPPGAFVSVSRDRTTRLWAPDSPNRGFTEMHCMSGHSNFVSCVCIIPSSDIYPHGLIATGGNDHNICIFSLDSPMPLYILKGHKDTVCSLSSGKFGTLLSGSWDTTAKVWLNDKCMMTLQGHTAAVWAVKILPEQGLMLTGSADKTIKLWKAGRCERTFLGHEDCVRGLAILSETEFLSCANDASIRRWQITGECLEVYFGHTNYIYSISVFPNSKDFVTTAEDRSLRIWKHGECAQTIRLPAQSIWCCCVLENGDIVVGASDGIIRVFTESEERTASAEEIKAFERELSQATIDSKTGDLGDINAEQLPGREHLSEPGTREGQTRLIRDGERVEAYQWSVSDGRWIKIGDVVGSSGANQQTSGKVLYEGKEFDYVFSIDVNEGGPSYKLPYNVSDDPWLVAYNFLQKNDLNPMFLDQVAKFIIDNTKGQTLGLGNTSFSDPFTGGGRYVPGTSGPSNTVQTADPFTGAGRYMPGSAGMDTTMTGVDPFTGNSAYRSAASKTVNIYFPKKEALTFDQANPTQILGKLKELNGTAPEEKKLTEDDLVLLEKILSLICNNSSEKPTAQQLQILWKAINWPEDIVFPALDILRLSIKHPNVNENFCNEKGDQFSSHLINLLNPKGKPANQLLALRTFCNCFVSQAGQKLMMSQRESLMSHAIELKSGSNKNIHIALATLTLNYSVCFHKDHNIEGKAQCLSVISTILEVVQDLEATFRLLVALGTLISDDSNAIQLAKSLGVDSQIKKYVSVSEPAKVSECCRLVLHLL |  | binds
